Measurements reported in PubChem BioAssay AID1159584 (Peter MacCallum Cancer Centre, 2016)
The whole screen tested about 18,000 reagents; below is a part drawn at random. Not all columns of the deposit are shown. The record does not give: the amount of reagent, the time to read-out.

Test: 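Genes that CDH1-null MCF10A cells selectively depend on to survive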 (primary screen)
Cell system: human MCF10A breast epithelial cells, parental and CDH1-null
Knock-down reagent: siRNA against human genes
Measured: 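ATP luminescence (CellTiter-Glo) viability per line relative to mean mock wells over all plates, and the ratio of CDH1-null to parental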
Reading the numbers: CDH1-null / parental viability ratio: higher = CDH1-null cells survive relatively better than parental

| Gene | CDH1-null / parental viability ratio |
| --- | --- |
| AEBP2 (AE binding protein 2) | 0.98 |
| OR9A2 (olfactory receptor family 9 subfamily A member 2) | 1.1 |
| VCL (vinculin) | 0.93 |
| GRAMD2A (GRAM domain containing 2A) | 1.37 |
| GDI2 (GDP dissociation inhibitor 2) | 0.95 |
| ACCS | 1.23 |
| ELOA (elongin A) | 0.8 |
| LARP1B (La ribonucleoprotein 1B) | 1.04 |
| ZNF574 (zinc finger protein 574) | 0.9 |
| CHRNA7 (cholinergic receptor nicotinic alpha 7 subunit) | 1.17 |
| SLC25A13 | 1.16 |
| DCTN2 (dynactin subunit 2) | 1.2 |
| AXL (AXL receptor tyrosine kinase) | 0.81 |
| RNF212 (ring finger protein 212) | 0.88 |
| HIBCH (3-hydroxyisobutyryl-CoA hydrolase) | 0.98 |
| TMX1 (thioredoxin related transmembrane protein 1) | 0.89 |
| ZNF681 (zinc finger protein 681) | 1.03 |
| YPEL5 (yippee like 5) | 0.69 |
| DSE (dermatan sulfate epimerase) | 1.05 |
| RBFOX2 (RNA binding fox-1 homolog 2) | 1.17 |
| DBNDD2 (dysbindin domain containing 2) | 1.2 |
| OPRK1 (opioid receptor kappa 1) | 1.65 |
| EIF4H (eukaryotic translation initiation factor 4H) | 1.15 |
| MTURN (maturin, neural progenitor differentiation regulator homolog) | 0.93 |
| TAF1 (TATA-box binding protein associated factor 1) | 1.09 |
| MRE11 (MRE11 double strand break repair nuclease) | 1.18 |
| OR8A1 (olfactory receptor family 8 subfamily A member 1) | 0.93 |
| PLRG1 (pleiotropic regulator 1) | 1.07 |
| C9orf153 (chromosome 9 open reading frame 153) | 0.62 |
| IMMP1L (inner mitochondrial membrane peptidase subunit 1) | 1 |
| LMTK1 (lemur tail kinase 1) | 0.99 |
| TPM4 (tropomyosin 4) | 0.97 |
| MATN3 (matrilin 3) | 1.17 |
| SCGB1A1 (secretoglobin family 1A member 1) | 0.91 |
| MAD2L2 (mitotic arrest deficient 2 like 2) | 0.71 |
| FXYD4 (FXYD domain containing ion transport regulator 4) | 1.24 |
| GALNT9 (polypeptide N-acetylgalactosaminyltransferase 9) | 0.69 |
| MLKL (mixed lineage kinase domain like pseudokinase) | 0.83 |
| CRIP2 (cysteine rich protein 2) | 0.99 |
| CCL16 (C-C motif chemokine ligand 16) | 0.76 |
| H2BC8 (H2B clustered histone 8) | 1.27 |
| DARS2 (aspartyl-tRNA synthetase 2, mitochondrial) | 1.04 |
| ANO6 (anoctamin 6) | 1.28 |
| FXN (frataxin) | 1.14 |
| F11 (coagulation factor XI) | 1.21 |
| RNASE1 (ribonuclease A family member 1, pancreatic) | 0.95 |
| SUMF1 (sulfatase modifying factor 1) | 1.1 |
| TAPT1 (transmembrane anterior posterior transformation 1) | 1.12 |
| FAS (Fas cell surface death receptor) | 0.88 |
| DAZAP2 (DAZ associated protein 2) | 1.11 |
| KCNA1 (potassium voltage-gated channel subfamily A member 1) | 1.07 |
| NRM (nurim) | 1.09 |
| IRAK2 (interleukin 1 receptor associated kinase 2) | 0.9 |
| OR9G9 (olfactory receptor family 9 subfamily G member 9) | 0.89 |
| GDF9 (growth differentiation factor 9) | 0.85 |
| ZNF177 (zinc finger protein 177) | 1.05 |
| RTKN2 (rhotekin 2) | 0.9 |
| KRT14 (keratin 14) | 1.44 |
| TAC1 (tachykinin precursor 1) | 1.03 |
| VCX3B (variable charge X-linked 3B) | 0.85 |
| UBE2W (ubiquitin conjugating enzyme E2 W) | 1.17 |
| B4GALT3 (beta-1,4-galactosyltransferase 3) | 0.94 |
| INHA (inhibin subunit alpha) | 0.79 |
| DOC2A (double C2 domain alpha) | 0.98 |
| NENF (neudesin neurotrophic factor) | 1.06 |
| SSX9P (SSX family member 9, pseudogene) | 1.23 |
| GPR174 (G protein-coupled receptor 174) | 1.52 |
| PBLD (phenazine biosynthesis like protein domain containing) | 0.95 |
| TAS2R19 (taste 2 receptor member 19) | 0.68 |
| POLR2F (RNA polymerase II, I and III subunit F) | 1.96 |
| LRRC24 (leucine rich repeat containing 24) | 1.17 |
| REDIC1 (regulator of DNA class I crossover intermediates 1) | 1.13 |
| RNF2 (ring finger protein 2) | 0.97 |
| BAP1 (BRCA1 associated deubiquitinase 1) | 1.22 |
| LDB1 (LIM domain binding 1) | 1.2 |
| SPACA3 (sperm acrosome associated 3) | 0.76 |
| TAS2R5 (taste 2 receptor member 5) | 1.01 |
| PPARGC1A (PPARG coactivator 1 alpha) | 0.84 |
| SLITRK3 (SLIT and NTRK like family member 3) | 1.31 |
| LTA4H (leukotriene A4 hydrolase) | 1.19 |
| USP37 (ubiquitin specific peptidase 37) | 1.25 |
| PRAMEF2 (PRAME family member 2) | 1.01 |
| NANS (N-acetylneuraminate synthase) | 0.88 |
| RAB6C (RAB6C, member RAS oncogene family) | 0.99 |
| OR1Q1 (olfactory receptor family 1 subfamily Q member 1) | 0.98 |
| HBZ (hemoglobin subunit zeta) | 0.88 |
| PARP15 (poly(ADP-ribose) polymerase family member 15) | 1.12 |

Ordered by “CDH1-null / parental viability ratio” (lowest first): some entries from above.
| Gene | CDH1-null / parental viability ratio |
| --- | --- |
| SPACA3 (sperm acrosome associated 3) | 0.76 |
| RNF2 (ring finger protein 2) | 0.97 |
| REDIC1 (regulator of DNA class I crossover intermediates 1) | 1.13 |
| LRRC24 (leucine rich repeat containing 24) | 1.17 |
| LDB1 (LIM domain binding 1) | 1.2 |
| BAP1 (BRCA1 associated deubiquitinase 1) | 1.22 |
